Results reported in US20060172326A1, “HMG coenzyme a reductase inhibitors affect the mitochondrial DNA content of cells” (PrimaGen Holding B.V., priority 2003, published 2006).
For at least one compound, name, drawing or mass did not settle the structure.

Assays:
[1] = system: mtRNA; assay: mtRNA in patients using statins; assay type: in vivo, human patients; details: patients on statin; trend not as strong as for mtDNA
[2] = system: mitochondrial DNA in PBMC; assay: mtDNA content per PBMC (Primagen Retina MiTox DNA assay) in patients before and after two months of therapy; assay type: in vivo, human patients; details: patients with elevated total cholesterol, T=0 vs T=2 months on therapy (Simvastatin 20 mg per day; controls on fibric acid derivatives)

CCC(C)(C)C(=O)O[C@H]1C[C@@H](C)C=C2C=C[C@H](C)[C@H](CC[C@@H]3C[C@@H](O)CC(=O)O3)[C@H]21 [simvastatin, Simvastatin]
change in mtRNA due to the use of statins [1]: trend towards increase | change in mitochondrial DNA copies per PBMC, after two months relative to baseline [2]: increase | change in mitochondrial DNA copies per PBMC, after two months relative to baseline ([2]; listed as statin): significantly increasing
